Literature values, collected in article PMC7762046, “Fragments of a Wheat Hevein-Like Antimicrobial Peptide Augment the Inhibitory Effect of a Triazole Fungicide on Spore Germination of Fusarium oxysporum and Alternaria solani” (Antibiotics, 2020).

Tested on: soil-borne and foliar cereal-damaging fungi
Conditions: cited from earlier work
Excerpt: Along with the structural and functional similarities with other hevein-like AMPs, WAMPs have a number of specific characteristics, display an in vitro inhibitory activity towards various microorganisms including plant pathogenic fungi, and are able to inhibit a fungal effector fungalysin that cleaves plant chitinases.

AQRCGDQARGAKCPNCLCCGKYGFCGSGDAYCGKGSCQSQCRGCR [WAMP-2, hevein-like cysteine-rich antimicrobial peptide of wheat Triticum kiharae, 45 residues, recombinant from E. coli BL21 (DE3)]
Sensitizing activity to tebuconazole (Folicur EC 250): inactive as a sensitizer
